Values from PubChem BioAssay AID1259308 (NCATS, 2017)
Aim: 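Knock-downs that increase output of a recombinant reporter protein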 (primary screen). Cells: human HEK293 embryonic kidney cells stably expressing firefly luciferase (HEK-CMV-Luc2-Hygro). Knock-down reagent: single siRNA against human genes, 0.8 pmol siRNA per well. Time to read-out: 72 h. Detection: 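Reporter luminescence and viable-cell signal on separate replicate plates, given as percent of non-targeting control and median/MAD z-scores, plus per-cell luciferase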. Scale: total luciferase, z-score and total luciferase, % of control: higher = more reporter protein produced; luciferase per cell, z-score: higher = more reporter output per viable cell; viable cells, % of control: higher = more viable cells. Rule for the call: 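An siRNA counts as active if its total luciferase robust z-score exceeds 3; genes with two or more such siRNAs out of three were retested with fresh siRNAs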. Calls: active = raised luciferase; inactive = no rise.
The deposit covers about 59,000 reagents; shown is a part drawn at random. In the full data, about 1,510 (2.6%) were called active. 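Calls use total luciferase alone and ignore viability, so some active siRNAs may act by altering cell number.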 A number with no mark means an inactive call. Reagents against one gene are numbered here. Reagent sequences are not shown.

target	reagent no.	total luciferase, z-score	total luciferase, % of control	luciferase per cell, z-score	viable cells, % of control
SCUBE1	1	-1.28	56.4	-1.43	91.8
SCUBE1	2	0.99	102	1.13	84.4
SCUBE1	3	-0.443	73.1	-0.276	87.8
TMEM39A	1	-0.118	79.5	0.0136	88.6
TMEM39A	2	1.87	119	1.12	99
TMEM39A	3	0.329	88.4	-0.132	102
EIF6	1	-0.942	63.2	-0.555	81.7
EIF6	2	-0.957	62.8	-0.996	91.3
EIF6	3	-0.531	71.3	-0.33	86.9
MNMIP1	1	1.61	114	1.14	94.2
MNMIP1	2	2.98	141	1.74	99.7
MNMIP1	3	0.817	98.1	0.526	95.5

Quoted from above (2 entries):
target	reagent no.	total luciferase, z-score	total luciferase, % of control	luciferase per cell, z-score	viable cells, % of control
MNMIP1	1	1.61	114	1.14	94.2
MNMIP1	2	2.98	141	1.74	99.7

The list goes on.
target	reagent no.	total luciferase, z-score	total luciferase, % of control	luciferase per cell, z-score	viable cells, % of control
CARHSP1	1	1.98	121	1.93	81.6
CARHSP1	2	-1.88	44.5	0.19	47.3
CARHSP1	3	-1.07	60.5	-1.24	93.9
INA	1	-0.74	67.2	0.495	65.9
INA	2	1.63	114	0.853	102
INA	3	-2.56	30.9	-4.18	104
SECISBP2L	1	0.603	93.9	0.908	82.6
SECISBP2L	2	0.56	93	0.259	97.1
SECISBP2L	3	0.178	85.4	0.0629	93.9
PRDM5	1	-0.259	76.7	-0.235	91.2
PRDM5	2	-0.596	70	-0.878	98.6
PRDM5	3	1.3	108	5.15	31
